Measured values: patent publication US20220008500A1, “COMPOSITIONS AND METHODS FOR TREATING HEART FAILURE” (The George Washington University, priority 2017, published 2022)

Assay: Measurement of plasma OXT (Oxytocin ELISA Kit)
Format: in vivo, Sprague-Dawley rats
Details: CNO 1 mg/kg IP daily

In the case of `C[N+]1([O-])CCN(C2=Nc3cc(Cl)ccc3Nc3ccccc32)CC1` [CNO, clozapine N-oxide], the “Plasma OXT compared between groups” value (TAC rats with DREADDs) is reported as “not different between any group” and the “Plasma OXT compared between groups” value (rats without TAC (OXT NORM)) is reported as “not different between any group”.
